# Laboratory results from the supplement of paper PMC5949888.
# Most values lie at the floor of the assay. Slopes are relative: functional sequences can read slightly below zero.
# System: Saccharomyces cerevisiae PS128 hsf1 delta, HSF1(1-493) fusion
# Test: growth estimate (transactivation domain function in HSF1 fusion, heat-shock survival) (a.u. (slope of normalised read count over time)); higher = stronger growth at 37°C, i.e. more transactivation activity
# Conditions: library: random library
# Experimental: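 Random 60-nt DNA library encoding peptides of up to 20 aa, fused to the C-terminus of yeast HSF1 residues 1-493 (C-terminal TAD deleted) and expressed from the native HSF1 promoter on a CEN plasmid in hsf1-deleted S. cerevisiae PS128. Cells were selected at 37°C on -trp 5-FOA plates for 0, 2, 4, 6 and 8 days and amplicons were sequenced. Growth estimate is the slope of a robust linear fit of total-sum-normalised read counts (normalised to the first time point) over time, using at least 2 replicates. Sequences are classed functional (TAD activity) above a threshold of -0.13, set from stop-codon control sequences.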
row,Substance,growth estimate
1,DRVHIYCRCHPR,< -0.25
2,DRVLHRIRFQWIQLASLPPS,< -0.25
3,DRVNHGLHHCFAVLLLQRVR,< -0.25
4,DRVRLACRLLRLYTRRL,< -0.25
5,DRVRTGVGYPISCCQYLPTV,< -0.25
6,DRVRVGVPAGSTAASP,< -0.25
7,DRVTHMAE,-0.229
8,DRWRNSMRVK,< -0.25
9,DRWYAPLKIQKVDACSALSF,< -0.25
10,DRYCI,< -0.25
11,DSARDEKWNVSERLRLASLR,0.0615
12,DSCGWNLGISSRALRHEWTP,< -0.25
13,DSCLTVAGS,< -0.25
14,DSDKYASAPLEFNHVAAGLR,< -0.25
15,DSECEGVCCMAISPGDIVHE,< -0.25
16,DSEGRAQDYI,< -0.25
17,DSGPDLQGVDSVRSAPTILV,< -0.25
18,DSHPTT,< -0.25
19,DSITVTEDR,< -0.25
20,DSKGGHRPWVFVVFYCVHAG,< -0.25
21,DSKLATWLVAPPALAHVYTA,< -0.25
22,DSLGPLGYLRERTNIVGK,< -0.25
23,DSLHDGRISTLVWTVREA,< -0.25
24,DSLKSE,< -0.25
25,DSLLTGNADVVC,< -0.25

row,Substance,growth estimate
1,DSMGHLGASTRIATPVPCSR,< -0.25
2,DSQWGDSDSIPLPSRCTETI,< -0.25
3,DSRG,< -0.25
4,DSRLGRASNRELLEAHEKST,< -0.25
5,DSSAHRW,< -0.25
6,DSSGASRIKYRL,< -0.25
7,DSSRPTHGHVIVGNFSVKLP,< -0.25
8,DSTFLLPIRPLGVVTLVRIT,< -0.25
9,DSTLGCLMGSLFRNPVITWV,-0.225
10,DSTRAGSLYPVVSRNVMEDA,< -0.25
11,DSTVKAGMGSHAAAYTNCIP,< -0.25
12,DSTVRVKQSQEYVTD,< -0.25
13,DSVEEKWIL,< -0.25
14,DSVGPSVR,< -0.25
15,DSVGTCPVGASKHRAV,< -0.25
16,DSVQTICVVDVGSVS,< -0.25
17,DSVV,< -0.25
18,DSYSL,< -0.25
19,DTAG,< -0.25
20,DTAGV,< -0.25
21,DTDGRYQGAGEQGNIGPRYA,< -0.25
22,DTEHRNLKV,< -0.25
23,DTERGACVTSQRAC,< -0.25
24,DTFLASQGSGEQQRYRSRLG,< -0.25
25,DTHARGKHRSTTRAARQVMM,< -0.25

# Given bar-delimited: part of the list above
row | Substance | growth estimate
6 | DSSGASRIKYRL | < -0.25
16 | DSVQTICVVDVGSVS | < -0.25
17 | DSVV | < -0.25
20 | DTAGV | < -0.25
21 | DTDGRYQGAGEQGNIGPRYA | < -0.25
23 | DTERGACVTSQRAC | < -0.25
24 | DTFLASQGSGEQQRYRSRLG | < -0.25

# Next results

row,Substance,growth estimate
1,DTHHRSGKDQSLKGVLDQRL,< -0.25
2,DTIVLAIYWSATSTESCCPF,< -0.25
3,DTKALLVQSGCKIETAR,< -0.25
4,DTMPGGT,< -0.25
5,DTNIVC,-0.243
6,DTPC,< -0.25
7,DTPSCNA,< -0.25
8,DTR,< -0.25
9,DTRCRKPKRLAKKLGIAYHT,< -0.25
10,DTRFPAHDLPLEGMAGPID,< -0.25
11,DTRW,< -0.25
12,DTSSYTGHLEVCAFYSVQRS,< -0.25
13,DTVRR,< -0.253
14,DTWIIGSLHMLV,< -0.25
15,DTYCTI,< -0.25
16,DVARSQQSWQGLSFVPKRLL,< -0.25
17,DVDAGETSLQCI,< -0.25
18,DVGD,< -0.25
19,DVGGFTSLSVLMFFVAYFSS,< -0.25
20,DVGKTPVGLVVSRSRGTEG,< -0.25
21,DVGQVVVHV,< -0.25
22,DVGRLGSRSIRTLPDTIWLA,< -0.25
23,DVILGKTLQPHAGLIIRDPT,< -0.25
24,DVISWPLAKTRIQNGGDTNT,-0.147
25,DVKRWPMMSAGTFYQQKRC,< -0.25

row,Substance,growth estimate
1,DVNRSNFGNRRGLWPRTLSR,< -0.25
2,DVQLAFN,< -0.25
3,DVQLLGSGYCRVHIFNTHPT,< -0.25
4,DVQSTS,< -0.25
5,DVRITSIGARSQ,< -0.25
6,DVRYLISQAK,< -0.25
7,DVSTRCPSL,< -0.25
8,DVT,< -0.25
9,DVTDHQSRS,< -0.25
10,DVVGLESSEQNLNRVRECTI,< -0.25
11,DVVNSTRLVDNSVVLVPGTQ,< -0.25
12,DWCRRSSRSVSPGSWDT,< -0.25
13,DWDTSGMGYRRDLLCPPRGC,< -0.25
14,DWETFRP,< -0.25
15,DWGAEDSKLQRLKSSGTFCR,< -0.25
16,DWIRDHPRTSVRTRIRNRFR,< -0.25
17,DWLLVNITRKRLVCCVEALS,< -0.25
18,DWPIKGTQPHFRRSNHR,< -0.25
19,DWPPSHAASPPMFYMWDRGP,< -0.25
20,DWSAAIGCEFPPIQRSRGTS,-0.239
21,DWVT,< -0.25
22,DYAVNPRSRKVGSRR,< -0.25
23,DYGNHRRSESQ,< -0.25
24,DYNRRLES,< -0.25
25,DYRALRK,< -0.25

# A different layout for some results above:
row	Substance	growth estimate
15	DWGAEDSKLQRLKSSGTFCR	< -0.25
16	DWIRDHPRTSVRTRIRNRFR	< -0.25
17	DWLLVNITRKRLVCCVEALS	< -0.25
18	DWPIKGTQPHFRRSNHR	< -0.25
19	DWPPSHAASPPMFYMWDRGP	< -0.25

# More entries:

row,Substance,growth estimate
1,DYRTVTFGIQFVIVKVKPGC,< -0.25
2,DYTDGQIEGGHTPCVRLGSK,< -0.25
3,DYV,< -0.25
4,EAADAWS,< -0.25
5,EAFGWNAVQ,< -0.25
6,EALCLKENPGLMSQKTRTAR,< -0.25
7,EALGLQRLKYTRKRLAPSIA,< -0.25
8,EAPSP,< -0.25
9,EASEESTKSATLS,< -0.25
10,EAVLWAFVEH,-0.224
11,EAYGV,< -0.25
12,ECAFLVHPKSIGVALQVCSS,< -0.25
13,ECHLYVNWQVPKYSGEHAL,< -0.25
14,ECHWCLFVRTDTPYVSGPRW,< -0.25
15,ECIHAV,< -0.25
16,ECPRSLGKM,< -0.25
17,ECVLPGVDSSLSSSPTDMYP,< -0.25
18,ECYVLVFKGTY,< -0.25
19,EDFDQCGSEVWL,0.163
20,EDIMVAIGQTGSCWALYEIG,< -0.25
21,EDL,< -0.25
22,EDLLPKWPAFATIEEALATI,< -0.25
23,EDPE,< -0.25
24,EDQANSS,< -0.25
25,EDRGFYILQ,< -0.25

row,Substance,growth estimate
1,EDVLVSCRRSRSKDGGRPVY,< -0.25
2,EDVPQHTVGGTLLTRNQAGA,< -0.25
3,EDVRNNYKRECGSRHDDKAY,< -0.25
4,EDWG,< -0.25
5,EEAKDEFWPPTCAW,< -0.25
6,EEDVV,< -0.25
7,EEILRSKRSGKLAAPHRVQH,-0.243
8,EEPLVRSTARI,< -0.25
9,EEPSLRTLFLGTCCMLRSEV,-0.231
10,EERM,< -0.25
11,EERQICGPKRRTNAGRKDHA,< -0.25
12,EERTVGCQDGEV,< -0.25
13,EERWSTGMGTGPGCAGSRSL,< -0.25
14,EESPASQVSGCVSVLVYRMI,< -0.25
15,EEVYGLMRIGLVGVRVFRAP,< -0.25
16,EFEYIAAVRVLGGCGR,< -0.25
17,EFGQLSPKGSNKNWWMDRKQ,-0.237
18,EFLGTHRP,< -0.25
19,EFPRFGPGMRNSGGHTT,-0.231
20,EFRIY,< -0.25
21,EFRSGTFQSGVGHSISDHWI,-0.159
22,EFVEKYAGTRC,< -0.25
23,EFWGNLCYQSWLGP,< -0.25
24,EFYFERVGTIGCDVNRG,< -0.25
25,EGEAALHVELVQLRG,-0.243

row,Substance,growth estimate
1,EGENPRIAQMGLSRQVCGGP,< -0.25
2,EGGAIHHETVLYSSIGADVP,< -0.25
3,EGGLTPG,< -0.25
4,EGGSLA,< -0.25
5,EGGYNGLVRR,< -0.25
6,EGIC,< -0.25
7,EGIGANQE,< -0.25
8,EGISEGREYARP,< -0.25
9,EGITSSLSA,-0.248
10,EGIVCT,< -0.253
11,EGIVV,< -0.25
12,EGKGLNSIKLQLLGLYGCYQ,< -0.25
13,EGMYAA,< -0.25
14,EGNDHSCATLGVGGSQPCSL,< -0.25
15,EGNGCRKPTARIKCRHLSGR,< -0.25
16,EGPELARLTVDERDGRFRQP,< -0.25
17,EGPRQNSGASLRIGWNTTVT,< -0.25
18,EGQ,< -0.25
19,EGRALLEDRCQ,< -0.25
20,EGRCLRYEHWVLYRRFSVNL,< -0.25
21,EGRFPVRTW,< -0.25
22,EGRGRRSGITRFVTER,< -0.25
23,EGRLSTEGSSTHVAYTGLGL,< -0.25
24,EGRST,< -0.25
25,EGSGSCYKRPSLRIGKTGVV,< -0.25

row,Substance,growth estimate
1,EGSITHTVQLLRVQNWYRKR,< -0.25
2,EGSLEEGKMRTCCRCALRDE,< -0.25
3,EGTEIVVTVTMLATDFGLHR,< -0.25
4,EGTRGVRSV,< -0.25
5,EGVSTHEVGR,< -0.25
6,EGWRSW,< -0.25
7,EGWV,< -0.25
8,EGYCVKSSVGSKIIIDPSGT,< -0.25
9,EGYRLSPILDGLRLRPGGGA,< -0.25
10,EHA,< -0.25
11,EHESPLEPS,< -0.25
12,EHGFPIFPGPC,< -0.25
13,EHGIAVRIARRRLVCNRLEM,< -0.25
14,EHICCLLVSHREISECNGSA,< -0.25
15,EHLLMPFVGRELSKILLKCP,< -0.25
16,EHMVLVVTTVLLKLGIRCPA,< -0.25
17,EHPGASWVLALRVSRRRWLN,< -0.25
18,EHPIRIVCASILFRSRVTPT,< -0.25
19,EHRFPGAFVE,< -0.25
20,EHTKGANSKVGSGETVLKAS,< -0.25
